These are yes or no findings as the source states them, for the method shown. Some entries that bind do so weakly or less than the wild type. Where a sequence is shown, tags or fusion partners need not be part of it. Each block holds one binder with its values, some of them ahead of it.
Biological target: T1, Mouse cKIT ECD, C-terminal 6x His (Sino Biological Inc, Catalog number 50530-M08H) (mouse) (UniProt P05532)
T1 sequence: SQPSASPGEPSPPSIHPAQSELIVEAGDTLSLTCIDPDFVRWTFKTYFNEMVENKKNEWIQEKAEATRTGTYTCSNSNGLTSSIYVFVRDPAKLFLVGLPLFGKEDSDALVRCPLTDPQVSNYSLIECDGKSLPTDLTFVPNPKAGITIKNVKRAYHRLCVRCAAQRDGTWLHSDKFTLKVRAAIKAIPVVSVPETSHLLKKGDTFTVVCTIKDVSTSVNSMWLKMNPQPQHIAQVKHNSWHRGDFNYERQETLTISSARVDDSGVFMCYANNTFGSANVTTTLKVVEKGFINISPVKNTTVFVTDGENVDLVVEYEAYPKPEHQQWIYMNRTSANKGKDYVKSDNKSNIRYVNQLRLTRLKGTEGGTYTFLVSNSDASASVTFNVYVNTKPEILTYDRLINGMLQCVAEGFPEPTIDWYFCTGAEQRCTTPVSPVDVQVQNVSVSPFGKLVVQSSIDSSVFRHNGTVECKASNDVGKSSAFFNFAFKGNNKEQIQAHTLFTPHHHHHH
Assay: cross reactivity, Table 6 (Example 4: Biacore SPR, antibody captured, cKIT ECD in solution)

- binding: binds
B1: Anti-cKIT Ab5 (antibody, human IgG1, lambda, V domains shown)
VH: QVQLVQSGAEVKKPGESLKISCKGSGYSFTNYWIAWVRQMPGKGLEWMGIIYPSNSYTLYSPSFQGQVTISADKSISTAYLQWSSLKASDTAMYYCARVPPGGSISYPAFDHWGQGTLVTVSS
VL: DIELTQPPSVSVSPGQTASITCSGDNIGSIYASWYQQKPGQAPVLVIYRDNKRPSGIPERFSGSNSGNTATLTISGTQAEDEADYYCSVTDMEQHSVFGGGTKLTVLG
notes: Full-length human IgG1, lambda light chain

- binding: binds
B2: Anti-cKIT Ab4 (antibody, human IgG1, lambda, V domains shown)
VH: QVQLQQSGPGLVKPSQTLSLTCAISGDSVSTNSAAWNWIRQSPSRGLEWLGRIYYRSQWLNDYAVSVKSRITINPDTSKNQFSLQLNSVTPEDTAVYYCARQLTYPYTVYHKALDVWGQGTLVTVSS
VL: DIELTQPPSVSVSPGQTASITCSGDNLGDQYVSWYQQKPGQAPVLVIYDDTDRPSGIPERFSGSNSGNTATLTISGTQAEDEADYYCQSTDSKSVVFGGGTKLTVLG
notes: Full-length human IgG1, lambda light chain; also called IgG control for J4

— patent US20190321483A1 (Novartis, published 2019)
